Source: the supplement of paper PMC12823440, “Inhibitors supercharge kinase turnover through native proteolytic circuits” (Nature, 2025)
Counter-ions that a name gives are not always drawn. This is one part of the list. Hit calls seldom repeat between salt and free forms of one compound.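 Kinases, fused to nanoluciferase, were expressed in K562 cells; luminescence was measured every 4 h from 2 to 18 h as percent of control (DMSO = 100%, positive control = 0%). A time point is decreased if signal falls significantly (2 sigma). Hits were called by the authors by a rule that is not shown; the count of time points alone does not decide it.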

Amino acid sequences for entries named in this document (tags omitted). A change or cut given only in a name is not applied to a line headed by its entry.
UniProt Q15208: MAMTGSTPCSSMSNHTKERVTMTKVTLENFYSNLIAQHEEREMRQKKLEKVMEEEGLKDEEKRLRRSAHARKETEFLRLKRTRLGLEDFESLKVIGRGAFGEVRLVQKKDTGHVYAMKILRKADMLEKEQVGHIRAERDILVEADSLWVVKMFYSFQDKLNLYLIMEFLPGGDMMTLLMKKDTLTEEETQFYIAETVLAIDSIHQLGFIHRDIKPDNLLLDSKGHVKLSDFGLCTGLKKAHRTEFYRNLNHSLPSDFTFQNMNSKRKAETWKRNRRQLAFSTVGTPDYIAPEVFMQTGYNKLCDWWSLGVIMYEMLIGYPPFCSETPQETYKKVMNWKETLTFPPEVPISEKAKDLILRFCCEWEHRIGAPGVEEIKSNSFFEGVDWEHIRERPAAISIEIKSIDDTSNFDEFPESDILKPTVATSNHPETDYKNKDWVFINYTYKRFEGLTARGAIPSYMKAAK
UniProt P42680: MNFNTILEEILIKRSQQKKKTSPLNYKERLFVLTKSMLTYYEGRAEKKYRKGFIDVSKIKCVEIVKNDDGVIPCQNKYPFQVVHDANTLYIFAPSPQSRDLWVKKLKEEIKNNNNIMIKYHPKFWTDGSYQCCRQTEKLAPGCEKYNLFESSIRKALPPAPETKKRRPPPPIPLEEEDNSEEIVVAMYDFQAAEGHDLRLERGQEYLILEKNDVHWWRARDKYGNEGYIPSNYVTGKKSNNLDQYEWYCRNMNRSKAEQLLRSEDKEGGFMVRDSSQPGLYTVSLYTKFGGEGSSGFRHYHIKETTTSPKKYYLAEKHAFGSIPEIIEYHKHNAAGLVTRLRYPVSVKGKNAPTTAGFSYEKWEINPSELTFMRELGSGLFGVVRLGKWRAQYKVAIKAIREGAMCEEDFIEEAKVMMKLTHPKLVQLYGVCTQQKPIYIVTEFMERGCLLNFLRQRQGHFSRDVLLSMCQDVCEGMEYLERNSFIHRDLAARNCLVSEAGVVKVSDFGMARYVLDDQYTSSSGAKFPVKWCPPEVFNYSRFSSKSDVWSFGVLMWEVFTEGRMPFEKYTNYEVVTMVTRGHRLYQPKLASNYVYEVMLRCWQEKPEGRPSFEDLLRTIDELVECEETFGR
UniProt P29597: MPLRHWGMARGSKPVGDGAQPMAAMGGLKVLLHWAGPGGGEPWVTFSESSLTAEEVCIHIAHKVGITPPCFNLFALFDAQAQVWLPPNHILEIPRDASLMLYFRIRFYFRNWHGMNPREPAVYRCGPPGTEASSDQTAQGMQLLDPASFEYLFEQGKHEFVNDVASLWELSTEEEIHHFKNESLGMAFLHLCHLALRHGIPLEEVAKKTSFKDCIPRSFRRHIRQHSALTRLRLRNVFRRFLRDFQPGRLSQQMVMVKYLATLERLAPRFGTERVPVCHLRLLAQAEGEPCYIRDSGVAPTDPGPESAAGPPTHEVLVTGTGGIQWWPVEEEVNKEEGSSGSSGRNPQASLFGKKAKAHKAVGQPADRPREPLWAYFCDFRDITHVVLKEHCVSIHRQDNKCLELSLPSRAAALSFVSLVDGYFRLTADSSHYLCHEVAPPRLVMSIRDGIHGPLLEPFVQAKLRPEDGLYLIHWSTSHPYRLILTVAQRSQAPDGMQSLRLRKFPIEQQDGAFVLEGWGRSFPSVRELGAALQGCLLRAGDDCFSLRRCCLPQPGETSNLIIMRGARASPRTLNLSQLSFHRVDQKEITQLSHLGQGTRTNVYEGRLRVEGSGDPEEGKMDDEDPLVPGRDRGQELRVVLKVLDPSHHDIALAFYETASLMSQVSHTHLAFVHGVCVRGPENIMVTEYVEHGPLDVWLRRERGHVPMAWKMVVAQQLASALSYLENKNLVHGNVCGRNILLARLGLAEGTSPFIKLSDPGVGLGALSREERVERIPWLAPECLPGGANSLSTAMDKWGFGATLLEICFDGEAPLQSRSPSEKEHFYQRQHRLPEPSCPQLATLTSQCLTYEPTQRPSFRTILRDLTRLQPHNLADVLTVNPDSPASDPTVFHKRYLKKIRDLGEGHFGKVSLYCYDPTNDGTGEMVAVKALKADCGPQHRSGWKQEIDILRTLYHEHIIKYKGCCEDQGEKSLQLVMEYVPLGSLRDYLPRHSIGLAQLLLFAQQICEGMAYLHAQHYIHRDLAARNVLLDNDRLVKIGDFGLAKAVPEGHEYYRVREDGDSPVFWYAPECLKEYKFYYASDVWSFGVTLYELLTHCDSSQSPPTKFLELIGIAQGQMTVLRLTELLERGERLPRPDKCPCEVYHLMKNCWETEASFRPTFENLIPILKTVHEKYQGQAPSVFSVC
UniProt Q6PHR2: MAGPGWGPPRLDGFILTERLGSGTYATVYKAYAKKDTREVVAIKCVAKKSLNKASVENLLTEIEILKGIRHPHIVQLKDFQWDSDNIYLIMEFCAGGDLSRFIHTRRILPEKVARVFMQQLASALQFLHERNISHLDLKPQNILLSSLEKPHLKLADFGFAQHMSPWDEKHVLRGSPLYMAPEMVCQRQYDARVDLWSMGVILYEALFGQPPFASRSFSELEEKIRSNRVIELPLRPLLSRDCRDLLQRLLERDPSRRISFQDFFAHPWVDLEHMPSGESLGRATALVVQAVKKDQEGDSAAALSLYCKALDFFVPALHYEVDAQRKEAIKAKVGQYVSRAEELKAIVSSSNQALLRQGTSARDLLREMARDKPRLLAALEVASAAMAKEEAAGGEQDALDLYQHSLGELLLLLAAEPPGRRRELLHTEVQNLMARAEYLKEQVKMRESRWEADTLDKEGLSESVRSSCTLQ
UniProt P07947, whole entry, looked up: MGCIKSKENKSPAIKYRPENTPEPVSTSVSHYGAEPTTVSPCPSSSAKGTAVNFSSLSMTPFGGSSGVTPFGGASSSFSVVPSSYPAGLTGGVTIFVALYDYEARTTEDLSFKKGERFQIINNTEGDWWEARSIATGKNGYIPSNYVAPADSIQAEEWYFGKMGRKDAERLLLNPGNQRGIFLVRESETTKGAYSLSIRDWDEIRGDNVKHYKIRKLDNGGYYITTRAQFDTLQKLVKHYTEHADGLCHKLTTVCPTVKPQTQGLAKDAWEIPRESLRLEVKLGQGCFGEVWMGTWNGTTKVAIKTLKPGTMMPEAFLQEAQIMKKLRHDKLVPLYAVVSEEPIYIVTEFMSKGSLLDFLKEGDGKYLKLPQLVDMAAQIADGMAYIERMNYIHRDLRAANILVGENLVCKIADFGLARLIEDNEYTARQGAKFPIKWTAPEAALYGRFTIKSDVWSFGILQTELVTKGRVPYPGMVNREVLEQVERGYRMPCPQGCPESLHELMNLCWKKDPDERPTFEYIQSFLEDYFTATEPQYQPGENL
UniProt P43403: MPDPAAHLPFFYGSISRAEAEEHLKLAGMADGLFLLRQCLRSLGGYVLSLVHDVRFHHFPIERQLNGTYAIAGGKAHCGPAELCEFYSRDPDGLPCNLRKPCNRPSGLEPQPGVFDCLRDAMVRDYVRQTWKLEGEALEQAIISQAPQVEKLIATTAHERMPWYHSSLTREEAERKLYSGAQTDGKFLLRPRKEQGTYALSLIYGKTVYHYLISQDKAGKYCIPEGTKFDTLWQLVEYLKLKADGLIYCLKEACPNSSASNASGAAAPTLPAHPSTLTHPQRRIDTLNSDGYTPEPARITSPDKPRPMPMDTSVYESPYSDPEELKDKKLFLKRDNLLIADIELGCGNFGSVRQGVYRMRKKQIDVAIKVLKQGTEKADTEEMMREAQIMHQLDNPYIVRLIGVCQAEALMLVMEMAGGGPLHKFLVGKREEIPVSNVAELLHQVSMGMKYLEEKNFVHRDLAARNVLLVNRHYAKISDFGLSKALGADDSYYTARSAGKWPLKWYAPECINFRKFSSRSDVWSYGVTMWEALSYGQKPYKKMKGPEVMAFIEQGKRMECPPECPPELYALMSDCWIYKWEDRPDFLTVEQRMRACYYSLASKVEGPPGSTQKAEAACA
UniProt P00519, whole entry: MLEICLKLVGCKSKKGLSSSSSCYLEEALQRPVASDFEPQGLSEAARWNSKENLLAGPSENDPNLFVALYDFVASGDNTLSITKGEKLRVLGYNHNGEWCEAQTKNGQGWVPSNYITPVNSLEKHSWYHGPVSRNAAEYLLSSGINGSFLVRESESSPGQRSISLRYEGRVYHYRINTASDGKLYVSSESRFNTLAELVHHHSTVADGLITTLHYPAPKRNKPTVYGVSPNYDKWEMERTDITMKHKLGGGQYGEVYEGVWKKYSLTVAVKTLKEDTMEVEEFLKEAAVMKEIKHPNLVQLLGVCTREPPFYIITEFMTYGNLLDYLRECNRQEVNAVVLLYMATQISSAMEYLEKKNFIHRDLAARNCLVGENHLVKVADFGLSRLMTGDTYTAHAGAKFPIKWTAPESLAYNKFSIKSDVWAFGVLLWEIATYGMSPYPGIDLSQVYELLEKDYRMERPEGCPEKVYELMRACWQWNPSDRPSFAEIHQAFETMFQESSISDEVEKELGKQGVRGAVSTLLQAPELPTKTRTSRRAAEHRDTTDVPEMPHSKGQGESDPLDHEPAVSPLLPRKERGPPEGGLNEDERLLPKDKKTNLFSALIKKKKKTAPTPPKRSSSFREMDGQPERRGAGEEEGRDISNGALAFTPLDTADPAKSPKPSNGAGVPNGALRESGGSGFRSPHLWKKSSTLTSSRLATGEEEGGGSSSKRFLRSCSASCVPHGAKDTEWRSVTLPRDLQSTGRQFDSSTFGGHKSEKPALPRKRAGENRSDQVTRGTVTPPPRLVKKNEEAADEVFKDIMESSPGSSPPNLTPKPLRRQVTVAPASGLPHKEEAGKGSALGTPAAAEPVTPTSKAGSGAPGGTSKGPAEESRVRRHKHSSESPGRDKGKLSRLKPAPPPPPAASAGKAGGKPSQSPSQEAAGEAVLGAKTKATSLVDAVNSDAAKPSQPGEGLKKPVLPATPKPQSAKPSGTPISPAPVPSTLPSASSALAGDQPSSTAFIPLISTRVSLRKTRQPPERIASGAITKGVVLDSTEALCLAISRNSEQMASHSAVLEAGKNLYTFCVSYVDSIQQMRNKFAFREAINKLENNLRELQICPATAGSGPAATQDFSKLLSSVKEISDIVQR
UniProt P31749: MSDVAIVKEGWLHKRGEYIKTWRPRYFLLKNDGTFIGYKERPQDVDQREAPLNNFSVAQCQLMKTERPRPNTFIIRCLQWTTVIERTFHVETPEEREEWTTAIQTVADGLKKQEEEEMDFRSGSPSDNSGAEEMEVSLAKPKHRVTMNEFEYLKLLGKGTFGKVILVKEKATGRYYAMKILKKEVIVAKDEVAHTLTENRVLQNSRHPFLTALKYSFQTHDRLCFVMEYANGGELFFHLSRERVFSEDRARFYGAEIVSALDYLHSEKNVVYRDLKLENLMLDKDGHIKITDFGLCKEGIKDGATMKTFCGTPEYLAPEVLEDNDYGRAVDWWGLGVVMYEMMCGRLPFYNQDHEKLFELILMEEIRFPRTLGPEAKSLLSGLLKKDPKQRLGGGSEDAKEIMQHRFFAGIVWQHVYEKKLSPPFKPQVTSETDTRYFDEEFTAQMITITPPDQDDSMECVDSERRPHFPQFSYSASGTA

Experiments:
Conditions in all cases: K562; 2-18 h
[1] = molecular target: STK38 (UniProt Q15208); test: kinase-Nluc reporter destabilization hit call (1 = scored as downregulated) (binary); higher = compound decreases kinase abundance
[2] = molecular target: SYK (UniProt P43405); test: as above
[3] = molecular target: TEC (UniProt P42680); test: as above
[4] = molecular target: TYK2 (UniProt P29597); test: as above
[5] = molecular target: ULK3 (UniProt Q6PHR2); test: as above
[6] = molecular target: YES1 (UniProt P07947); test: as above
[7] = molecular target: ZAK (UniProt Q9NYL2); test: as above
[8] = molecular target: ZAP70 (UniProt P43403); test: as above
[9] = molecular target: ABL1 (UniProt P00519); test: number of time points (of 5) at which kinase-Nluc abundance scored as decreased, DMSO-normalised (count); higher = more persistent destabilization
[10] = molecular target: AKT1 (UniProt P31749); test: as above

| SMILES | kinase-Nluc reporter destabilization hit call [1] | kinase-Nluc reporter destabilization hit call [2] | kinase-Nluc reporter destabilization hit call [3] | kinase-Nluc reporter destabilization hit call [4] | kinase-Nluc reporter destabilization hit call [5] | kinase-Nluc reporter destabilization hit call [6] | kinase-Nluc reporter destabilization hit call [7] | kinase-Nluc reporter destabilization hit call [8] | number of time points [9] | number of time points [10] |
| --- | --- | --- | --- | --- | --- | --- | --- | --- | --- | --- |
| C[C@@H]1CC[C@]2(C(=O)O)CC[C@]3(C)C(=CC[C@@H]4[C@@]5(C)CC[C@H](O)[C@@](C)(CO)[C@@H]5CC[C@]43C)[C@@H]2[C@]1(C)O [Rotundic acid] (10 µM) | inactive: 0 | inactive: 0 | inactive: 0 | inactive: 0 | inactive: 0 | inactive: 0 | inactive: 0 | inactive: 0 | 0 | 0 |
| O=C(Nc1nc2cccc(-c3ccc(CN4CCS(=O)(=O)CC4)cc3)n2n1)C1CC1 [Filgotinib] (2.5 µM) | inactive: 0 | inactive: 0 | inactive: 0 | inactive: 0 | inactive: 0 | inactive: 0 | inactive: 0 | inactive: 0 | 0 | 0 |
| CCCCNc1ncc2c(-c3ccc(CN4CCN(C)CC4)cc3)cn([C@H]3CC[C@H](O)CC3)c2n1 [UNC2025 (hydrochloride)] (2.5 µM) | inactive: 0 | inactive: 0 | inactive: 0 | inactive: 0 | inactive: 0 | inactive: 0 | inactive: 0 | inactive: 0 | 2 | 0 |
| O=S(=O)(N=Cc1c(O)ccc2ccccc12)c1cccs1 (10 µM) | inactive: 0 | inactive: 0 | inactive: 0 | inactive: 0 | inactive: 0 | inactive: 0 | inactive: 0 | inactive: 0 | 0 | 0 |
| C1=N/C2=N/c3ccc(OCCN4CCCC4)c(c3)COC/C=C/COCc3cccc(c3)C(=C1)N2 [Pacritinib] (2.5 µM) | inactive: 0 | inactive: 0 | inactive: 0 | inactive: 0 | inactive: 0 | inactive: 0 | inactive: 0 | inactive: 0 | 0 | 0 |
| C[C@H](CC[C@@H](O)C(C)(C)O)[C@H]1CC[C@@]2(C)[C@@H]3CC=C4[C@@H](CC[C@H](O)C4(C)C)[C@]3(C)[C@H](O)C[C@]12C [Mogrol] (10 µM) | inactive: 0 | inactive: 0 | inactive: 0 | inactive: 0 | inactive: 0 | inactive: 0 | inactive: 0 | inactive: 0 | 0 | 0 |
| CC(C)(C)S(=O)(=O)c1cc2c(Nc3ccc4scnc4c3)ccnc2cc1OCCOCCOCCOCCOCC(=O)Nc1cccc2c1CN(C1CCC(=O)NC1=O)C2=O (stereo not given) [PROTAC RIPK degrader-6] (10 µM) | inactive: 0 | inactive: 0 | inactive: 0 | inactive: 0 | inactive: 0 | inactive: 0 | inactive: 0 | inactive: 0 | 4 | 0 |
